This is one part of the list.
What follows are targets tested with CCCS(=O)(=O)Nc1ccc(F)c(C(=O)c2c[nH]c3ncc(-c4ccc(Cl)cc4)cc23)c1F [vemurafenib] (assay: log2 fold change, soluble protein after heating vs DMSO (PISA); higher = thermal stabilisation; K562 lysate, 10 uM; active = over 0.2 and 3.5 SD of the protein, either way, in both replicates (recomputed)).
Method in brief: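 Soluble protein was defined as the supernatant remaining after 21,000xg for 90 min, following pooling of heated aliquots and adjustment to 0.5% NP-40 at 4°C. Before that, crude K562 extract at 1 mg/mL protein in PBS pH 7.4 with 1 mM MgCl2 was treated with 10 μM compound for 30 min and heated for 3 min across 48°C-58°C. Quantification used TMTpro 16plex LC-MS/MS with channel sums equalised, and values are log-two fold changes in thermal stability relative to solvent controls from duplicates.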

Protein sequences, listed by entry. Tags and fused reporters are not part of them. Lines headed by an entry give the natural chain unless they say otherwise; changes in a name come on top.
UniProt O75506: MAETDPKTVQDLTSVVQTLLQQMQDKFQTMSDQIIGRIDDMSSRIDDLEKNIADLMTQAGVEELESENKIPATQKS
UniProt O43390: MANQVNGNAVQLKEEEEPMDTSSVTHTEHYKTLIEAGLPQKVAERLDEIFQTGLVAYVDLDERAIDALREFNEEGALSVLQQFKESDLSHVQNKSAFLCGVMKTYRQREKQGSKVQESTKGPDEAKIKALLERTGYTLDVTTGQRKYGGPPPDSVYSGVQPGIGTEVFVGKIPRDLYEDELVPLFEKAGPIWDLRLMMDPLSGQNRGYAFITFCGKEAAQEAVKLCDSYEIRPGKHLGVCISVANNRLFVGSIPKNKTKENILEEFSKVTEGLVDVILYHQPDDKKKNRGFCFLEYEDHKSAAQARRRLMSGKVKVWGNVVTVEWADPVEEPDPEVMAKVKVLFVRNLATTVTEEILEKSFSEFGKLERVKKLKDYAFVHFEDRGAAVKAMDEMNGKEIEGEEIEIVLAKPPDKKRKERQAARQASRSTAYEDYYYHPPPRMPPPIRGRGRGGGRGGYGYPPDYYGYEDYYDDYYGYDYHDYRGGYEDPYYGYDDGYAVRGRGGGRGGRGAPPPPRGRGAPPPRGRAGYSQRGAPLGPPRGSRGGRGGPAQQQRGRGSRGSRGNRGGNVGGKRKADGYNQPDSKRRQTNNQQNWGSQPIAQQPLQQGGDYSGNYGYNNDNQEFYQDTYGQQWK
UniProt P56937: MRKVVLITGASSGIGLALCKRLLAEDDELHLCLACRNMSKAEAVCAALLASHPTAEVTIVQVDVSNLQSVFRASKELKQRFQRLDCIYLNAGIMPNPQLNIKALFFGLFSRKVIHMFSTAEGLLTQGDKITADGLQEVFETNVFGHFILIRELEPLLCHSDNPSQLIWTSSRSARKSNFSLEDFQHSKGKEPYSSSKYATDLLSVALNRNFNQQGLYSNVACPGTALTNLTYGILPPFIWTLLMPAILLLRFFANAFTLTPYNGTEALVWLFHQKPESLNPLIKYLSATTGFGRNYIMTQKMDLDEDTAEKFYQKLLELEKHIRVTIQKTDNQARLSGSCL
UniProt Q9NWY4: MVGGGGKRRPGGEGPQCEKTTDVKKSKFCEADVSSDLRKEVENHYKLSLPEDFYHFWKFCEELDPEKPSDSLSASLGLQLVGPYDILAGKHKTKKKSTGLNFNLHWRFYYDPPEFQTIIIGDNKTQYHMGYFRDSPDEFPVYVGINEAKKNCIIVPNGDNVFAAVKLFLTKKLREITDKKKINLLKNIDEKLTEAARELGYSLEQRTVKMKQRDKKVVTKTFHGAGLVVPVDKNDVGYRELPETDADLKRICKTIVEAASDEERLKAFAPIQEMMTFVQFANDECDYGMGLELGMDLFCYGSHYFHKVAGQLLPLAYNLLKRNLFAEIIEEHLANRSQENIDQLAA
UniProt Q15011: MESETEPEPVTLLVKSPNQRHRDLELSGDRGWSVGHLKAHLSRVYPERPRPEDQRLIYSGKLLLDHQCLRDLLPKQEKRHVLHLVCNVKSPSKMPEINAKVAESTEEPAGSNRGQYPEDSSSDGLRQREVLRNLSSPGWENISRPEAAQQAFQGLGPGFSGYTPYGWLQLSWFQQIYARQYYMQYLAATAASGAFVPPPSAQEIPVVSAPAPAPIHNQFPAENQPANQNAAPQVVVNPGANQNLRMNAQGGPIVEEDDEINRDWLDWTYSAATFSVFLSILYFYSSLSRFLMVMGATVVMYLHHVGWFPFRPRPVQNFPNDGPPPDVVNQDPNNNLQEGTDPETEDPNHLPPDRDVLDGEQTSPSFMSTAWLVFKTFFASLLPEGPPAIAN
UniProt Q9BYK8: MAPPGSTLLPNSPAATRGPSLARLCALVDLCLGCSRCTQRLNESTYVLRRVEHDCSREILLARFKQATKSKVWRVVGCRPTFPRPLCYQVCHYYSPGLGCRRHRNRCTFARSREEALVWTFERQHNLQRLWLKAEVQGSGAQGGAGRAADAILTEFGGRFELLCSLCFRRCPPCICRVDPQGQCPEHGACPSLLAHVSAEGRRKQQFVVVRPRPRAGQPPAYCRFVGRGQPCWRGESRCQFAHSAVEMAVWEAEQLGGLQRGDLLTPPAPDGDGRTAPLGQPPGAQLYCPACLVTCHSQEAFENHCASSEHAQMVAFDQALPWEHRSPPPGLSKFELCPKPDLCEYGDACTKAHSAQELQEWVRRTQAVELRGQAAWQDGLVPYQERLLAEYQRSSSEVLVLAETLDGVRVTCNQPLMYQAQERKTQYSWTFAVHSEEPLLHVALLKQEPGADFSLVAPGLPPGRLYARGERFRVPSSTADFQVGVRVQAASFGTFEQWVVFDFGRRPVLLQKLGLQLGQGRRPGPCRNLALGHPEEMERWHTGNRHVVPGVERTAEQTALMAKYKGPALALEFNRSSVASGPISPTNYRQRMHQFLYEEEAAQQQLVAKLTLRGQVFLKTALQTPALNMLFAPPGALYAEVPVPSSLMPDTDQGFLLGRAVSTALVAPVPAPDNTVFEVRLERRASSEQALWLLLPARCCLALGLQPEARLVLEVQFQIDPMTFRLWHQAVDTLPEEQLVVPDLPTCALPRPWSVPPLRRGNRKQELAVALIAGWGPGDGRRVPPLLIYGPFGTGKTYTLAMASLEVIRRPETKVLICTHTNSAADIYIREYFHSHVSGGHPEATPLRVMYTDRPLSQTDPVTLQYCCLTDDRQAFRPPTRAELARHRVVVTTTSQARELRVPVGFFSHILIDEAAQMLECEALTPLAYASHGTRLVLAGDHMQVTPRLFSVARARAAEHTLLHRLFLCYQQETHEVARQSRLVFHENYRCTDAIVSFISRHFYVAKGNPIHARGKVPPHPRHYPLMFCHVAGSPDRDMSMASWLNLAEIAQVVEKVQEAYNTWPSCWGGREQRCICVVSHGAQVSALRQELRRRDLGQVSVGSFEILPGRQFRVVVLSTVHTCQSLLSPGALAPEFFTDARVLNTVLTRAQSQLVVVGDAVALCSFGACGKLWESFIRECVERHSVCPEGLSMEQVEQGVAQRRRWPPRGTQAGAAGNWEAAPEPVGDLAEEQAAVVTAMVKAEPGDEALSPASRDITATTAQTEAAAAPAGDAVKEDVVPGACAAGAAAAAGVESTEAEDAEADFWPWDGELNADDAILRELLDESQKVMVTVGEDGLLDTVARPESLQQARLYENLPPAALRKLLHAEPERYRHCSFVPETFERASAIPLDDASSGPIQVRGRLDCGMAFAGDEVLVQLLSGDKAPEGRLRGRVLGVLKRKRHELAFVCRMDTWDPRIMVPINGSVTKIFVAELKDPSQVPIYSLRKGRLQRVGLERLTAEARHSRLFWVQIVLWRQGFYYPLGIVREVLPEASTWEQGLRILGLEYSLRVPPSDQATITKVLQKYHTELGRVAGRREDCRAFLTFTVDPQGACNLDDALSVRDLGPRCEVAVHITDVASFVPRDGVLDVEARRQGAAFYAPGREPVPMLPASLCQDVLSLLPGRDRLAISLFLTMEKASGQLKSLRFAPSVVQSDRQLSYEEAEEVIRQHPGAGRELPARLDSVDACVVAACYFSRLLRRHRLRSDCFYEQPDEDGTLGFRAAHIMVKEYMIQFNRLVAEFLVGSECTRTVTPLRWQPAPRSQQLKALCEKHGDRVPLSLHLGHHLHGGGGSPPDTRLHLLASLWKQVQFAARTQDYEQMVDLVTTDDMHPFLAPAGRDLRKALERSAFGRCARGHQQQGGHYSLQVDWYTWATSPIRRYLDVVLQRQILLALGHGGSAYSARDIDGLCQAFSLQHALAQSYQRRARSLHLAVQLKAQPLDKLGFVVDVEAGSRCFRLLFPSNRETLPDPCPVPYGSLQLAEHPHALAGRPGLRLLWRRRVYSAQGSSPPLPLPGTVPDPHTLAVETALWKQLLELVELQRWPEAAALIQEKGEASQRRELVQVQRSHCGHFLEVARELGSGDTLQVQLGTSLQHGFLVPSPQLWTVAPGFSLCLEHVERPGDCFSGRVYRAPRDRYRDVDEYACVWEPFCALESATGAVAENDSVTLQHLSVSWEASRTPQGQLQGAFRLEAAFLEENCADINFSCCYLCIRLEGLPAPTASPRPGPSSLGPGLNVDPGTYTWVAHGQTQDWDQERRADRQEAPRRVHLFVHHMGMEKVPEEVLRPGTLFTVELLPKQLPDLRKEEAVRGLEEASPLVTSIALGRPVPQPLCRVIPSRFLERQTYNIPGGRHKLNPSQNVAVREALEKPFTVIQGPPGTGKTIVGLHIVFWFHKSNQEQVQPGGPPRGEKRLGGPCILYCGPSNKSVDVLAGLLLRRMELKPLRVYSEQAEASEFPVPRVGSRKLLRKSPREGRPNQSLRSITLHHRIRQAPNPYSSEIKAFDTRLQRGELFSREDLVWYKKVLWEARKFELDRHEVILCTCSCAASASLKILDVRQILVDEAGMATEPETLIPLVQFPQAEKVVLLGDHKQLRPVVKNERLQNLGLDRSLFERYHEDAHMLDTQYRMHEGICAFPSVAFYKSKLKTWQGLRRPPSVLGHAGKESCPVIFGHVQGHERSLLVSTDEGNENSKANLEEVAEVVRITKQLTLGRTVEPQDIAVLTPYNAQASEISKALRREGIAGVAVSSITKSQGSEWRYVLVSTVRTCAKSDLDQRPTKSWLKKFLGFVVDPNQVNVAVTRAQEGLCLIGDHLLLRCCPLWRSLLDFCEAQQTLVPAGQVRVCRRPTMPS
UniProt P17482: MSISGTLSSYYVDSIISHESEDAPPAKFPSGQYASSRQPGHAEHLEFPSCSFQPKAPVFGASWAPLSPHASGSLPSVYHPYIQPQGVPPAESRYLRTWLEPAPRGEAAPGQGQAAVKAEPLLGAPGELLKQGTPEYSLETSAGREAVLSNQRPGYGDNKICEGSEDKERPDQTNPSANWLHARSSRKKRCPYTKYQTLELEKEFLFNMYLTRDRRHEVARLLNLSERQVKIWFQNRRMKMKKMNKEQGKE
UniProt Q8WVB3: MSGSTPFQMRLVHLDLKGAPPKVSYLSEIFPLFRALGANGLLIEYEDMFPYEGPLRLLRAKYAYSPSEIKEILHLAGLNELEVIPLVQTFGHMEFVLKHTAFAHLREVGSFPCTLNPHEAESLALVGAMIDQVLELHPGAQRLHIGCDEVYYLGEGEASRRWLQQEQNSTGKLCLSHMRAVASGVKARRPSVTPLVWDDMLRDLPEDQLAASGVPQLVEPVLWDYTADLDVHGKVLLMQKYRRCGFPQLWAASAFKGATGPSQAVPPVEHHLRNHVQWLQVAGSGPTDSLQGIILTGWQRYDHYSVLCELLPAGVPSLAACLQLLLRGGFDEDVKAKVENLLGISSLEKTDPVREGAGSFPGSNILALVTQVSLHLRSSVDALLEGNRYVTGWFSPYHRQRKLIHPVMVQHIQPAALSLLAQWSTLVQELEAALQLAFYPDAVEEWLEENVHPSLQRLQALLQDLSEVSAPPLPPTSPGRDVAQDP
UniProt Q6AI08: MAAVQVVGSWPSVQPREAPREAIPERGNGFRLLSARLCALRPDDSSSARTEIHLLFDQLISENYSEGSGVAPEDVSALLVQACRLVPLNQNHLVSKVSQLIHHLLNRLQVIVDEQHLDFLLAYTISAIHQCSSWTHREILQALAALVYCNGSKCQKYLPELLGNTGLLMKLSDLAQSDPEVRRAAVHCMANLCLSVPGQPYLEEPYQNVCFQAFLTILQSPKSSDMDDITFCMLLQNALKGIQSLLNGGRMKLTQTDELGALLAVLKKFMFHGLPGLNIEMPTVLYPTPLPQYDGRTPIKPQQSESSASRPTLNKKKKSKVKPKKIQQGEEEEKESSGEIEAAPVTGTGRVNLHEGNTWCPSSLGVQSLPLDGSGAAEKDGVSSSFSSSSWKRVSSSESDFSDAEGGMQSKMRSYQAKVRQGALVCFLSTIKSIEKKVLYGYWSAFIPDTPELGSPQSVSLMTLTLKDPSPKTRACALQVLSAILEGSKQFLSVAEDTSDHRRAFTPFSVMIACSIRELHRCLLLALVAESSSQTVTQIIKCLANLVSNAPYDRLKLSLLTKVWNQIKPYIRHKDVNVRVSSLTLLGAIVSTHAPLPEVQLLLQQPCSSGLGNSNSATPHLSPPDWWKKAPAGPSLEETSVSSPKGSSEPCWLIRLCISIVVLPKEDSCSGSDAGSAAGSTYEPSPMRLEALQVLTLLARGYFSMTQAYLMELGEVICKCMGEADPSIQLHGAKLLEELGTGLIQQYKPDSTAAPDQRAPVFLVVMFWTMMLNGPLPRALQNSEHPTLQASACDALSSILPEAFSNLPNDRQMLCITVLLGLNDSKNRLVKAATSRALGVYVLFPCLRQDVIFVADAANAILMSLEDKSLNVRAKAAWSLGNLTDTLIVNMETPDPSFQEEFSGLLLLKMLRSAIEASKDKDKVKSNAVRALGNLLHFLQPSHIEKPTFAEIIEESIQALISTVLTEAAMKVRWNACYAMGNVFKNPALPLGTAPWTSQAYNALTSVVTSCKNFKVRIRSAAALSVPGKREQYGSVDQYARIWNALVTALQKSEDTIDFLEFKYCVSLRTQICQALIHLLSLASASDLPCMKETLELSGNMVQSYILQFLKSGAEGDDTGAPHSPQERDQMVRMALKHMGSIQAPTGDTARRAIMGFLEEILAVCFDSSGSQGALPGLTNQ

log2 fold change, inactive:
HOOK3 (UniProt Q86VS8) 0.005
HINT3 (UniProt Q9NQE9) 0.024
HPS5 (UniProt Q9UPZ3) 0.036
HMGXB4 (UniProt Q9UGU5) -0.13
HECW2 (UniProt Q9P2P5) 0.026
HSBP1 (UniProt O75506) -0.056
HNRNPR isoform 2 (UniProt O43390) -0.005
HSPA1A (UniProt P0DMV8) -0.023
HSD17B7 (UniProt P56937) -0.161
HP1BP3 (UniProt Q5SSJ5) 0.03
HPF1 (UniProt Q9NWY4) 0.031
HECTD4 (UniProt J3KPF0) 0.04
HNRNPA2B1 (UniProt P22626) 0.006
HERPUD1 (UniProt Q15011) -0.053
HELZ2 (UniProt Q9BYK8) -0.02
HOXB9 (UniProt P17482) -0.015
HPS1 (UniProt Q92902) 0.093
HOXB4 (UniProt P17483) 0.06
HIRA (UniProt P54198) 0.001
HJURP (UniProt Q8NCD3) -0.06
HEXD isoform 2 (UniProt Q8WVB3) 0.008
HK1 isoform 2 (UniProt P19367) 0.009
HEATR6 (UniProt Q6AI08) 0.052

Random excerpt: 2 entries already listed
log2 fold change, inactive:
HJURP (UniProt Q8NCD3) -0.06
HMGXB4 (UniProt Q9UGU5) -0.13
